In paper PMC9088798, “An Approach to Derive Functional Peptide Inhibitors of Transcription Factor Activity” (JACS Au, 2022):
The exact form of at least one protein or probe is not confirmed.

Sequences of proteins named here, by UniProt entry; tags and fusion partners are left off. A line that says so, or that is headed by a name, gives the form on record, which may keep a tag or linker.
UniProt P05412, other isoform, or with tags, fused parts or gaps: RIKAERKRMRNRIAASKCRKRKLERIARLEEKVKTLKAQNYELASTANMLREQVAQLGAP

What was measured:
cJun bZIP (human) [1] = biological target: cJun bZIP (human) (UniProt P05412); assay: EMSA, competition; settings: 20 uM cJun, 2 uM DNA, free DNA band read-out, EMSA: 150 mM KCl, 1 mM DTT, 1 mM EDTA, 10 mM Tris, 10 mM MgCl2, pH 8, 4 C, 30 min, recombinant protein, protein details: C-terminal GAP, His-SUMO cleaved off
cJun bZIP (human) [2] = biological target: cJun bZIP (human) (UniProt P05412); assay: CD (281 nm DNA peak), competition; settings: EMSA: 150 mM KCl, 1 mM DTT, 1 mM EDTA, 10 mM Tris, 10 mM MgCl2, pH 8, 4 C, 30 min, recombinant protein, protein details: C-terminal GAP, His-SUMO cleaved off

GTCAGTCAGTGACTCAATCGGTCA (double strand) [TRE DNA]
IC50 (cJun bZIP (human) [1]; IC50 of A-FosW peptide): 12.1 µM | IC50 (cJun bZIP (human) [1]; IC50 of HingeW peptide): 9.6 µM | IC50 (cJun bZIP (human) [2]; IC50 of A-FosW peptide displacing cJun from TRE DNA): 16 µM | IC50 (cJun bZIP (human) [2]; IC50 of FosW peptide displacing cJun from TRE DNA): 120 µM
